Data published in article PMC11850942.

Sequences of proteins named here, by UniProt entry; tags and fusion partners are left off.
UniProt Q04206: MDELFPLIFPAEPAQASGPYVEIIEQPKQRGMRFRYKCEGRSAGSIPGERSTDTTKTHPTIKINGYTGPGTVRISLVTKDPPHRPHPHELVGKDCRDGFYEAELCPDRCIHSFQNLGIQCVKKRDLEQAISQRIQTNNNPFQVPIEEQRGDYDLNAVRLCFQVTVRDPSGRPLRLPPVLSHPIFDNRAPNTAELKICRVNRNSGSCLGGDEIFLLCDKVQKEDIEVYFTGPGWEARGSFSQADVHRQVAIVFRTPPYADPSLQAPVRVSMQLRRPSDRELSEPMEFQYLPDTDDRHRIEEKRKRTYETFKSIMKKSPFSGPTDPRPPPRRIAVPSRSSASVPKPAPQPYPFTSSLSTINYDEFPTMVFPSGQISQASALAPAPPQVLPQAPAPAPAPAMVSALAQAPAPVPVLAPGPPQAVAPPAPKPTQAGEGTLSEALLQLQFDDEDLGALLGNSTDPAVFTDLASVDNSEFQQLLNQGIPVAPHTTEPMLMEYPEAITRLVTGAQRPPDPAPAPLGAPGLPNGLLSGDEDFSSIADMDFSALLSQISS
UniProt O95409: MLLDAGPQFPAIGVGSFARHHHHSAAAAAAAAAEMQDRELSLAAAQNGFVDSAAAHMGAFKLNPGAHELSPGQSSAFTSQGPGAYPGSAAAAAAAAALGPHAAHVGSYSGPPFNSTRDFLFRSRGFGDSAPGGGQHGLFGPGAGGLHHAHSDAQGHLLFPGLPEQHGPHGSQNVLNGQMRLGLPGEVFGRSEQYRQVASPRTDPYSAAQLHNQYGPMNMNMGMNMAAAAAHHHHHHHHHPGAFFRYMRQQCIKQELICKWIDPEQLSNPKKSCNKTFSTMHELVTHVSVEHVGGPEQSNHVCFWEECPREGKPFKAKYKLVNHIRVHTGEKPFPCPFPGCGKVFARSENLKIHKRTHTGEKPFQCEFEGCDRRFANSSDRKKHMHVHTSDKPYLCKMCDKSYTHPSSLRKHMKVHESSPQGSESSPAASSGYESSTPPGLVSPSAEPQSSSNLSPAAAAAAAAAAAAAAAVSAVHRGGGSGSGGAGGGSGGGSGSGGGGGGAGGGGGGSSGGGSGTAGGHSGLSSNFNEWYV
UniProt P61224: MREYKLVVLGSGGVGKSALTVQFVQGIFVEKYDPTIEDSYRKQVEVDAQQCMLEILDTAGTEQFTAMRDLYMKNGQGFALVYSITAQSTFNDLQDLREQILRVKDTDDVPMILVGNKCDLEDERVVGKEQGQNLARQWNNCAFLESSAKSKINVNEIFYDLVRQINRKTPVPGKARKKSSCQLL
UniProt P28360: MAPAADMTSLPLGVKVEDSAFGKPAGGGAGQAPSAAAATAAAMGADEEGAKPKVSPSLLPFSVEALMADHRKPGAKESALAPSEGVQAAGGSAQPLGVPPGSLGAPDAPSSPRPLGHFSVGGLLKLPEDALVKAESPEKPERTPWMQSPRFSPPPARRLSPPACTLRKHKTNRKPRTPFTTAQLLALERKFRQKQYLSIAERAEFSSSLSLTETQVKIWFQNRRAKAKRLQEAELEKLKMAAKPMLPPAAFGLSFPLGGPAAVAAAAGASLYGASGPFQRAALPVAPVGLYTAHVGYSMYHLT
UniProt O15525: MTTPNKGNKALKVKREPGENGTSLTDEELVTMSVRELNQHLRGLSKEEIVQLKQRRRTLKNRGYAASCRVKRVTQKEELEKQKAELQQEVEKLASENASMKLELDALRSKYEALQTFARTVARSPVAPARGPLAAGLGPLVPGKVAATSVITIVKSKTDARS
UniProt Q92908: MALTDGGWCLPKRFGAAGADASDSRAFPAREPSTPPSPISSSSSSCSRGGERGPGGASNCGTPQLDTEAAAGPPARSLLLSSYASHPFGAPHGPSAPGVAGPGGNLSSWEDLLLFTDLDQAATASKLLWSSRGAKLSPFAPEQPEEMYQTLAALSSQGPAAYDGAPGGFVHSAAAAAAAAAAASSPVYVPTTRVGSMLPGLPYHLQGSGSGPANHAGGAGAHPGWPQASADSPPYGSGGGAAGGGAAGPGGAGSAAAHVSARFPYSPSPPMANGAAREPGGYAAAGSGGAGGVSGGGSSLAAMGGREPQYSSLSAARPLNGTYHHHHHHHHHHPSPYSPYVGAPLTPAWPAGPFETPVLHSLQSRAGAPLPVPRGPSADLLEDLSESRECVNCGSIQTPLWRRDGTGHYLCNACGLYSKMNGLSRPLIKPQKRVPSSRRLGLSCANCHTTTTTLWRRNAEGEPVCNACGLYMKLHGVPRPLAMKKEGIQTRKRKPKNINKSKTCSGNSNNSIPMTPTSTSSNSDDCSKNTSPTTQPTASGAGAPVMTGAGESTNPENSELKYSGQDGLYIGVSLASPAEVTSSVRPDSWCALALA
UniProt P62834: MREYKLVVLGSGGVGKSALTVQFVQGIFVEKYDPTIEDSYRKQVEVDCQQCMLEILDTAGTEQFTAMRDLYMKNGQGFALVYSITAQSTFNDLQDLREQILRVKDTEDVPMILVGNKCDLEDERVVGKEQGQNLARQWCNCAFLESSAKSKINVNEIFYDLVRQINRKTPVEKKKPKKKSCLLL
UniProt Q13950: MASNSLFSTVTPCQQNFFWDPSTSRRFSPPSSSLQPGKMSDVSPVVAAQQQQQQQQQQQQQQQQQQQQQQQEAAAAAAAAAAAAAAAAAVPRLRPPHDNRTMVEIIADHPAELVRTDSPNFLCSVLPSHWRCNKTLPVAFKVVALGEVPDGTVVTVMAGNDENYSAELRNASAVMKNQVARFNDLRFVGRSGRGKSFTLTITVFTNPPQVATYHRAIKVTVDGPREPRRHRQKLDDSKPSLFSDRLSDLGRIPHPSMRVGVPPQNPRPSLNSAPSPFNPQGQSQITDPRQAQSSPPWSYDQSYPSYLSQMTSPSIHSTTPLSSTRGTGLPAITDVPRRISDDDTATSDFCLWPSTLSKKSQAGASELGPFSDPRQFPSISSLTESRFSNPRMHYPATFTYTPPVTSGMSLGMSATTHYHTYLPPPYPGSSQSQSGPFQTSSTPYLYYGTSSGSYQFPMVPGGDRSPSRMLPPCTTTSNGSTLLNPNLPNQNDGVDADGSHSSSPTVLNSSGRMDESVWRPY
UniProt Q15532: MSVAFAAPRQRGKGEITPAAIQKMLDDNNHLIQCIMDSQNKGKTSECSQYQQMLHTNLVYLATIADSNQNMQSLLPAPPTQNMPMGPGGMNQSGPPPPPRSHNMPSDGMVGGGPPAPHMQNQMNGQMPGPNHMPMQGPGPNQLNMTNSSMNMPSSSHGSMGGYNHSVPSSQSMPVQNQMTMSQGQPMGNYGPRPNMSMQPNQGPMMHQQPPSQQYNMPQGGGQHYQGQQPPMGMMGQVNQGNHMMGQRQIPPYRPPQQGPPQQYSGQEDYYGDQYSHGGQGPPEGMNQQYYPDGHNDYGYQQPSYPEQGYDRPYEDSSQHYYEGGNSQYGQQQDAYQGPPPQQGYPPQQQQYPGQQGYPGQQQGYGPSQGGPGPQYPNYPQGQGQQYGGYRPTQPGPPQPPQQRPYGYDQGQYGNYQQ

B1: NFYC (protein, UniProt Q13952 1-458)
chain: MSTEGGFGGTSSSDAQQSLQSFWPRVMEEIRNLTVKDFRVQELPLARIKKIMKLDEDVKMISAEAPVLFAKAAQIFITELTLRAWIHTEDNKRRTLQRNDIAMAITKFDQFDFLIDIVPRDELKPPKRQEEVRQSVTPAEPVQYYFTLAQQPTAVQVQGQQQGQQTTSSTTTIQPGQIIIAQPQQGQTTPVTMQVGEGQQVQIVQAQPQGQAQQAQSGTGQTMQVMQQIITNTGEIQQIPVQLNAGQLQYIRLAQPVSGTQVVQGQIQTLATNAQQGQRNASQGKPRRCLKETLQITQTEVQQGQQQFSQFTDGQRNSVQQARVSELTGEAEPREVKATGNSTPCTSSLPTTHPPSHRAGASCVCCSQPQQSSTSPPPSDALQWVVVEVSGTPNQLETHRELHAPLPGMTSLSPLHPSQQLYQIQQVTMPAGQDLAQPMFIQSANQPSDGQAPQVTGD
B2: ATXN1L (protein, UniProt P0C7T5 1-689)
chain: MKPVHERSQECLPPKKRDLPVTSEDMGRTTSCSTNHTPSSDASEWSRGVVVAGQSQAGARVSLGGDGAEAITGLTVDQYGMLYKVAVPPATFSPTGLPSVVNMSPLPPTFNVASSLIQHPGIHYPPLHYAQLPSTSLQFIGSPYSLPYAVPPNFLPSPLLSPSANLATSHLPHFVPYASLLAEGATPPPQAPSPAHSFNKAPSATSPSGQLPHHSSTQPLDLAPGRMPIYYQMSRLPAGYTLHETPPAGASPVLTPQESQSALEAAAANGGQRPRERNLVRRESEALDSPNSKGEGQGLVPVVECVVDGQLFSGSQTPRVEVAAPAHRGTPDTDLEVQRVVGALASQDYRVVAAQRKEEPSPLNLSHHTPDHQGEGRGSARNPAELAEKSQARGFYPQSHQEPVKHRPLPKAMVVANGNLVPTGTDSGLLPVGSEILVASSLDVQARATFPDKEPTPPPITSSHLPSHFMKGAIIQLATGELKRVEDLQTQDFVRSAEVSGGLKIDSSTVVDIQESQWPGFVMLHFVVGEQQSKVSIEVPPEHPFFVYGQGWSSCSPGRTTQLFSLPCHRLQVGDVCISISLQSLNSNSVSQASCAPPSQLGPPRERPERTVLGSRELCDSEGKSQPAGEGSRVVEPSQPESGAQACWPAPSFQRYSMQGEEARAALLRPSFIPQEVKLSIEGRSNAGK
B3: CRTC2 (protein, UniProt Q53ET0 1-693)
chain: MATSGANGPGSATASASNPRKFSEKIALQKQRQAEETAAFEEVMMDIGSTRLQAQKLRLAYTRSSHYGGSLPNVNQIGSGLAEFQSPLHSPLDSSRSTRHHGLVERVQRDPRRMVSPLRRYTRHIDSSPYSPAYLSPPPESSWRRTMAWGNFPAEKGQLFRLPSALNRTSSDSALHTSVMNPSPQDTYPGPTPPSILPSRRGGILDGEMDPKVPAIEENLLDDKHLLKPWDAKKLSSSSSRPRSCEVPGINIFPSPDQPANVPVLPPAMNTGGSLPDLTNLHFPPPLPTPLDPEETAYPSLSGGNSTSNLTHTMTHLGISRGMGLGPGYDAPGLHSPLSHPSLQSSLSNPNLQASLSSPQPQLQGSHSHPSLPASSLARHVLPTTSLGHPSLSAPALSSSSSSSSTSSPVLGAPSYPASTPGASPHHRRVPLSPLSLLAGPADARRSQQQLPKQFSPTMSPTLSSITQGVPLDTSKLSTDQRLPPYPYSSPSLVLPTQPHTPKSLQQPGLPSQSCSVQSSGGQPPGRQSHYGTPYPPGPSGHGQQSYHRPMSDFNLGNLEQFSMESPSASLVLDPPGFSEGPGFLGGEGPMGGPQDPHTFNHQNLTHCSRHGSGPNIILTGDSSPGFSKEIAAALAGVPGFEVSAAGLELGLGLEDELRMEPLGLEGLNMLSDPCALLPDPAVEESFRSDRLQ
B4: MAMLD1 (protein, UniProt Q13495 1-774)
chain: MDDWKSRLVIKSMLPHFAMVGNRQEPRKLQESGKKPSWMEEEDLSFLYKSSPGRKHQGTVKRRQEEDHFQFPDMADGGYPNKIKRPCLEDVTLAMGPGAHPSTACAELQVPPLTINPSPAAMGVAGQSLLLENNPMNGNIMGSPFVVPQTTEVGLKGPTVPYYEKINSVPAVDQELQELLEELTKIQDPSPNELDLEKILGTKPEEPLVLDHPQATLSTTPKPSVQMSHLESLASSKEFASSCSQVTGMSLQIPSSSTGISYSIPSTSKQIVSPSSSMAQSKSQVQAMLPVALPPLPVPQWHHAHQLKALAASKQGSATKQQGPTPSWSGLPPPGLSPPYRPVPSPHPPPLPLPPPPPPFSPQSLMVSCMSSNTLSGSTLRGSPNALLSSMTSSSNAALGPAMPYAPEKLPSPALTQQPQFGPQSSILANLMSSTIKTPQGHLMSALPASNPGPSPPYRPEKLSSPGLPQQSFTPQCSLIRSLTPTSNLLSQQQQQQQQQQQANVIFKPISSNSSKTLSMIMQQGMASSSPGATEPFTFGNTKPLSHFVSEPGPQKMPSMPTTSRQPSLLHYLQQPTPTQASSATASSTATATLQLQQQQQQQQQQPDHSSFLLQQMMQQPQRFQRSVASDSMPALPRQGCCHLFAWTSAASSVKPQHQHGNSFTSRQDPQPGDVSPSNITHVDKACKLGEARHPQVSLGRQPPSCQALGSESFLPGSSFAHELARVTSSYSTSEAAPWGSWDPKAWRQVPAPLLPSCDATARGTEIRSYGNDP
B5: PBX2 (protein, UniProt P40425 1-430)
chain: MDERLLGPPPPGGGRGGLGLVSGEPGGPGEPPGGGDPGGGSGGVPGGRGKQDIGDILQQIMTITDQSLDEAQAKKHALNCHRMKPALFSVLCEIKEKTGLSIRSSQEEEPVDPQLMRLDNMLLAEGVAGPEKGGGSAAAAAAAAASGGGVSPDNSIEHSDYRSKLAQIRHIYHSELEKYEQACNEFTTHVMNLLREQSRTRPVAPKEMERMVSIIHRKFSAIQMQLKQSTCEAVMILRSRFLDARRKRRNFSKQATEVLNEYFYSHLSNPYPSEEAKEELAKKCGITVSQVSNWFGNKRIRYKKNIGKFQEEANIYAVKTAVSVTQGGHSRTSSPTPPSSAGSGGSFNLSGSGDMFLGMPGLNGDSYSASQVESLRHSMGPGGYGDNLGGGQMYSPREMRANGSWQEAVTPSSVTSPTEGPGSVHSDTSN
B6: HOMEZ (protein, UniProt Q8IX15 1-550)
chain: MVRGWEPPPGLDCAISEGHKSEGTMPPNKEASGLSSSPAGLICLPPISEELQLVWTQAAQTSELDSNEHLLKTFSYFPYPSLADIALLCLRYGLQMEKVKTWFMAQRLRCGISWSSEEIEETRARVVYRRDQLHFKSLLSFTHHAGRPPEEVPPPPVPAPEQVGIGIGPPTLSKPTQTKGLKVEPEEPSQMPPLPQSHQKLKESLMTPGSGAFPYQSDFWQHLQSSGLSKEQAGRGPNQSHGIGTASWNHSTTVPQPQARDKPPPIALIASSCKEESASSVTPSSSSTSSSFQVLANGATAASKPLQPLGCVPQSVSPSEQALPPHLEPAWPQGLRHNSVPGRVGPTEYLSPDMQRQRKTKRKTKEQLAILKSFFLQCQWARREDYQKLEQITGLPRPEIIQWFGDTRYALKHGQLKWFRDNAVPGAPSFQDPAIPTPPPSTRSLNERAETPPLPIPPPPPDIQPLERYWAAHQQLRETDIPQLSQASRLSTQQVLDWFDSRLPQPAEVVVCLDEEEEEEEEELPEDDEEEEEEEEEDDDDDDDDVIIQD
B7: ISL1 (protein, UniProt P61371 1-349)
chain: MGDMGDPPKKKRLISLCVGCGNQIHDQYILRVSPDLEWHAACLKCAECNQYLDESCTCFVRDGKTYCKRDYIRLYGIKCAKCSIGFSKNDFVMRARSKVYHIECFRCVACSRQLIPGDEFALREDGLFCRADHDVVERASLGAGDPLSPLHPARPLQMAAEPISARQPALRPHVHKQPEKTTRVRTVLNEKQLHTLRTCYAANPRPDALMKEQLVEMTGLSPRVIRVWFQNKRCKDKKRSIMMKQLQQQQPNDKTNIQGMTGTPMVAASPERHDGGLQANPVEVQSYQPPWKVLSDFALQSDIDQPAFQQLVNFSEGGPGSNSTGSEVASMSSQLPDTPNSMVASPIEA
B8: EBF1 (protein, UniProt Q9UH73 1-591)
chain: MFGIQESIQRSGSSMKEEPLGSGMNAVRTWMQGAGVLDANTAAQSGVGLARAHFEKQPPSNLRKSNFFHFVLALYDRQGQPVEIERTAFVGFVEKEKEANSEKTNNGIHYRLQLLYSNGIRTEQDFYVRLIDSMTKQAIVYEGQDKNPEMCRVLLTHEIMCSRCCDKKSCGNRNETPSDPVIIDRFFLKFFLKCNQNCLKNAGNPRDMRRFQVVVSTTVNVDGHVLAVSDNMFVHNNSKHGRRARRLDPSEGTPSYLEHATPCIKAISPSEGWTTGGATVIIIGDNFFDGLQVIFGTMLVWSELITPHAIRVQTPPRHIPGVVEVTLSYKSKQFCKGTPGRFIYTALNEPTIDYGFQRLQKVIPRHPGDPERLPKEVILKRAADLVEALYGMPHNNQEIILKRAADIAEALYSVPRNHNQLPALANTSVHAGMMGVNSFSGQLAVNVSEASQATNQGFTRNSSSVSPHGYVPSTTPQQTNYNSVTTSMNGYGSAAMSNLGGSPTFLNGSAANSPYAIVPSSPTMASSTSLPSNCSSSSGIFSFSPANMVSAVKQKSAFAPVVRPQTSPPPTCTSTNGNSLQAISGMIVPPM
B9: HMG20B (protein, UniProt Q9P0W2 1-317)
chain: MSHGPKQPGAAAAPAGGKAPGQHGGFVVTVKQERGEGPRAGEKGSHEEEPVKKRGWPKGKKRKKILPNGPKAPVTGYVRFLNERREQIRTRHPDLPFPEITKMLGAEWSKLQPTEKQRYLDEAEREKQQYMKELRAYQQSEAYKMCTEKIQEKKIKKEDSSSGLMNTLLNGHKGGDCDGFSTFDVPIFTEEFLDQNKAREAELRRLRKMNVAFEEQNAVLQRHTQSMSSARERLEQELALEERRTLALQQQLQAVRQALTASFASLPVPGTGETPTLGTLDFYMARLHGAIERDPAQHEKLIVRIKEILAQVASEHL

molecular target: p65(wt)-HA-miniTurbo (human) (UniProt Q04206)

| binding | Molecule |
| --- | --- |
| binds | ZIC2 (from UniProt O95409 1-532) |
| binds | RAP1B (from UniProt P61224 1-184) |
| binds | MSX1 (from UniProt P28360 1-303) |
| binds | MAFG (from UniProt O15525 1-162) |
| binds | GATA6 (from UniProt Q92908 1-595) |
| binds | RAP1A (from UniProt P62834 1-184) |
| binds | RUNX2 (from UniProt Q13950 1-521) |
| binds | SS18 (from UniProt Q15532 1-418) |
| binds | B1 |
| binds | B2 |
| binds | B3 |
| binds | B4 |
| binds | B5 |
| binds | B6 |
| binds | B7 |
| binds | B8 |
| binds | B9 |

Results are given in words; binding and its absence hold for the method and conditions named. In cells and extracts the contact can be indirect. Here binding means that the protein was enriched with, or labelled near, the bait; the list need not be complete.
